In paper PMC7862277:
These are yes or no findings as the source states them, for the method shown. Binding seen in cells or lysates may run through a third protein. A yes stands for co-enrichment or nearness to the bait. Other partners may have been found. Sequences can lack the tags named with a protein.

Protein sequences, listed by entry. Tags and fused reporters are not part of them. Residues count along the entry.
UniProt P07355: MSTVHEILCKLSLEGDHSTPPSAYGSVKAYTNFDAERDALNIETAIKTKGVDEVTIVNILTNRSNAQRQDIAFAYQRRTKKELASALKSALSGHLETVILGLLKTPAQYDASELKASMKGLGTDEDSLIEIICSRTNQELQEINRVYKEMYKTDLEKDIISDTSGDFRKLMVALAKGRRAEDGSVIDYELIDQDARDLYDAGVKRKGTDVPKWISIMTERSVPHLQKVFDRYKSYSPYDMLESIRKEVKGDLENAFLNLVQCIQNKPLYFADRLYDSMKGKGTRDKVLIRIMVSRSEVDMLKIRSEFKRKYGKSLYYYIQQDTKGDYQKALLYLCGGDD
UniProt P03372: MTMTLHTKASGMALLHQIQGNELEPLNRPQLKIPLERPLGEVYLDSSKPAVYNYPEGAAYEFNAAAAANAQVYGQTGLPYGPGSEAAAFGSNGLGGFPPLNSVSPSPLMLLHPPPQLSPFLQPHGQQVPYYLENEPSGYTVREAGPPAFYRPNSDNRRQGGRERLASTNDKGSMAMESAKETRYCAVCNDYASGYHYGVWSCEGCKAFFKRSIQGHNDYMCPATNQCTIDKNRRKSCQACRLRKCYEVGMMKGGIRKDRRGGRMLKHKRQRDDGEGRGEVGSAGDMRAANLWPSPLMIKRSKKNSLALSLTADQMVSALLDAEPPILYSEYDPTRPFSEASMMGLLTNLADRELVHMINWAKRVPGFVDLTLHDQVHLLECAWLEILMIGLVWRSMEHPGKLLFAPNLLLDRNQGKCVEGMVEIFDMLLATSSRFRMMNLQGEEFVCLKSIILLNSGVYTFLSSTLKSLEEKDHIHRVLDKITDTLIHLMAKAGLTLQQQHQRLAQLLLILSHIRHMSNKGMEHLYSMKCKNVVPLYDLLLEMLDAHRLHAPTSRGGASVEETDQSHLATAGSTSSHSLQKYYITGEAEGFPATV
UniProt P34932: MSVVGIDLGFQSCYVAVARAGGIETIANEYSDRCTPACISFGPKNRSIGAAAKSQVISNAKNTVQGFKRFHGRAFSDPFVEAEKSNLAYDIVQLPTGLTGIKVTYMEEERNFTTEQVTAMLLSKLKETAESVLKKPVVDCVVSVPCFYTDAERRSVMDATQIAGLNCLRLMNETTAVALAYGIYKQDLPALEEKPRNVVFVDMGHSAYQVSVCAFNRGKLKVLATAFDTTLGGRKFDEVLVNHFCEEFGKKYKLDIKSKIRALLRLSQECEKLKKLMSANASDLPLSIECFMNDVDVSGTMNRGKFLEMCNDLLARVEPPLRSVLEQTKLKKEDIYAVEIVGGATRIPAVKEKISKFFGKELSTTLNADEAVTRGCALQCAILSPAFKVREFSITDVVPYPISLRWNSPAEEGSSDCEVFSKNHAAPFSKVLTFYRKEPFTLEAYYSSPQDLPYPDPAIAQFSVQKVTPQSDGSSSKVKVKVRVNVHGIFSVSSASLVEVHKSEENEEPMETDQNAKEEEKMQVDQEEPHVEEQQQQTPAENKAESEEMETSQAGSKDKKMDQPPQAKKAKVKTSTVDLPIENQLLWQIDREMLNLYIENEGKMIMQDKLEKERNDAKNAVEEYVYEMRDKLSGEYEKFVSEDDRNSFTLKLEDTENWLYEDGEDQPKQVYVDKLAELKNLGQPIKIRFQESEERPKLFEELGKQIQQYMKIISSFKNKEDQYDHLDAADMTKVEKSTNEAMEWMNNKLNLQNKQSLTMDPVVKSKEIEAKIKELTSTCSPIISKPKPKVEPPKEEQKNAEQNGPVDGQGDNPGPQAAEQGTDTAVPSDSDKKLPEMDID
UniProt P11021, residues 19-654: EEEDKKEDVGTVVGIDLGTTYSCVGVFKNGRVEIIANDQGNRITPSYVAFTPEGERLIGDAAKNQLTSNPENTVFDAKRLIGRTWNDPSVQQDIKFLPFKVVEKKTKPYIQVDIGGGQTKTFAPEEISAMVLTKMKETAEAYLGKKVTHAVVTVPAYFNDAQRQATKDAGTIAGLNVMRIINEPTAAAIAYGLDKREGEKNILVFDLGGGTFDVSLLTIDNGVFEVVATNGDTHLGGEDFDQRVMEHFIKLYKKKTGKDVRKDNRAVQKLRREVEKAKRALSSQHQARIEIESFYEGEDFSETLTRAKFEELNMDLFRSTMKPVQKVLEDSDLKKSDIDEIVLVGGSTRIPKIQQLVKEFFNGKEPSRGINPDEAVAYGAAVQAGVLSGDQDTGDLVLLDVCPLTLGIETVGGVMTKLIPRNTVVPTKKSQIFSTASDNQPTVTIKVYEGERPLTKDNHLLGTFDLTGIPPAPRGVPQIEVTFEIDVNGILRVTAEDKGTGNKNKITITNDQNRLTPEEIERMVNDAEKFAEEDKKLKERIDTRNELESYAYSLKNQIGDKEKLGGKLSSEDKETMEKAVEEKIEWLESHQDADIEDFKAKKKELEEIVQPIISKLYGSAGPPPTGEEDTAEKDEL
UniProt P11142: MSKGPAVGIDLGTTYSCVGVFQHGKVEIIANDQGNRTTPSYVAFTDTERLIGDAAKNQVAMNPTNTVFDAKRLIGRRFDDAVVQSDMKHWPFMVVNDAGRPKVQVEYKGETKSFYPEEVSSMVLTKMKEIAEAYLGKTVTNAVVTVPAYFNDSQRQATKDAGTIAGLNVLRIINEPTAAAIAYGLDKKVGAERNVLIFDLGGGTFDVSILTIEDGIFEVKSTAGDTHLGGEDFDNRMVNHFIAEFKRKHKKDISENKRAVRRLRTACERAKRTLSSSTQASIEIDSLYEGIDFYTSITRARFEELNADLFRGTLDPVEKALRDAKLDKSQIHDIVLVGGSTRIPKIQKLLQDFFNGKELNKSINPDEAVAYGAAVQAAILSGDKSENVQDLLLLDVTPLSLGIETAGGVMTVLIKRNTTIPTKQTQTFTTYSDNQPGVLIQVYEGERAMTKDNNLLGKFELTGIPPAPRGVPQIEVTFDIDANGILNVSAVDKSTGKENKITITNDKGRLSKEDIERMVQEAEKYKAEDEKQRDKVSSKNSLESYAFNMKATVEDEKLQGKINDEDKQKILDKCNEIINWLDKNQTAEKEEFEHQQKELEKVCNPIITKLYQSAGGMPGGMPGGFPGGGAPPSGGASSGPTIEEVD
UniProt P38646, residues 47-679: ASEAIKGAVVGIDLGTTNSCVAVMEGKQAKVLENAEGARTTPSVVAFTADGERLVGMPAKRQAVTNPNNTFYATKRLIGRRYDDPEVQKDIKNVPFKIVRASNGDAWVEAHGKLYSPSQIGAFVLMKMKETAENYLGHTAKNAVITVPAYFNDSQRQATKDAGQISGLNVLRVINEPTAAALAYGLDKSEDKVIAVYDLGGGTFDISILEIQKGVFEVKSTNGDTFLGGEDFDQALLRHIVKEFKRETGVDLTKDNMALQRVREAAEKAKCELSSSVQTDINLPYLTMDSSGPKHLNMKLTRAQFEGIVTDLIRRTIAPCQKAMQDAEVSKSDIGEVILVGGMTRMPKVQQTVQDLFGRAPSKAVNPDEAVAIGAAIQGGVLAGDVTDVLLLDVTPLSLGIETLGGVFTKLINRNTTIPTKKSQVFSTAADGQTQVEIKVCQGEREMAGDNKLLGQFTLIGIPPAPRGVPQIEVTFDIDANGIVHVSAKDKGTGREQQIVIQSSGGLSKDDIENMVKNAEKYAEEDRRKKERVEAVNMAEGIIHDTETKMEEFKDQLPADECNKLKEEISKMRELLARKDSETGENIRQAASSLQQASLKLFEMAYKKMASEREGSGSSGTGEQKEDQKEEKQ
UniProt P19474: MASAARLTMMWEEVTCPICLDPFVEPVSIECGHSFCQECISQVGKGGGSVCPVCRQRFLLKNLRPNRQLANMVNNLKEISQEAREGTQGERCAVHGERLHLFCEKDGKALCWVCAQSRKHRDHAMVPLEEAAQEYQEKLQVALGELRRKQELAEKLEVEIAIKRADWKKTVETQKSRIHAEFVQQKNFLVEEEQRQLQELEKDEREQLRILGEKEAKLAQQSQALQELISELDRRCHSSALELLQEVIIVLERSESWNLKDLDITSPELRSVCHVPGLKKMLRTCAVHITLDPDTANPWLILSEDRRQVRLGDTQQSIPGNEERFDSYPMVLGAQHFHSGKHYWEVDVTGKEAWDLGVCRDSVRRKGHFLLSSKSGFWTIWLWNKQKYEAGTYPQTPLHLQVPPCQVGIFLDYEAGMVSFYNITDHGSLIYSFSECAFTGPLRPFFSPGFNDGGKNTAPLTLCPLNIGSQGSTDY
UniProt P67809: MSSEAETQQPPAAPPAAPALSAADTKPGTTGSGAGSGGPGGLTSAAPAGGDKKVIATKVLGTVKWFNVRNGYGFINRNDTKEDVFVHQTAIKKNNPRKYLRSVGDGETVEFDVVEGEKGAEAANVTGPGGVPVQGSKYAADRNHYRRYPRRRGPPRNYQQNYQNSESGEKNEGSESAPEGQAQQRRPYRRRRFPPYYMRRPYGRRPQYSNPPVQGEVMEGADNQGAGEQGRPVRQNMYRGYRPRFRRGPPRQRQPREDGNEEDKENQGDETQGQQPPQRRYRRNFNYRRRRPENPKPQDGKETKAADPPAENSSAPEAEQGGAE

T1: FLAG-tagged NUPR1 (human) (UniProt O60356)
T1 sequence: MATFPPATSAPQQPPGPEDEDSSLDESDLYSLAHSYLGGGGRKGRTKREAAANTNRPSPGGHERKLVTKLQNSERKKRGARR

B1: S100A9 (protein, UniProt P06702 1-114)
chain: MTCKMSQLERNIETIINTFHQYSVKLGHPDTLNQGEFKELVRKDLQNFLKKENKNEKVIEHIMEDLDTNADKQLSFEEFIMLMARLTWASHEKMHEGDEGPGHHHKPGLGEGTP

Molecular target: T1, FLAG-tagged NUPR1 (human)
Experiment: affinity purification with mass spectrometry; lysates of MCF-7TamR cells stably expressing FLAG-NUPR1 on anti-FLAG M2 affinity beads, no more than 3 h at 4 °C; eluted with FLAG peptide; SDS-PAGE, silver staining, LC-MS/MS of bands; FLAG empty vector as control

Molecule | binding
ANXA2 (from UniProt P07355 1-339) | binds
ESR1 (estrogen receptor alpha), endogenous (from UniProt P03372 1-595) | binds
HSPA4 (from UniProt P34932 1-840) | binds
HSPA5 (from UniProt P11021 19-654) | binds
HSPA8 (from UniProt P11142 1-646) | binds
HSPA9 (from UniProt P38646 47-679) | binds
TRIM21 (from UniProt P19474 1-475) | binds
YBX1 (from UniProt P67809 1-324) | binds
B1 | binds
